PubChem BioAssay AID1259425 – University of Nebraska Medical Center | 2018
Here is a random part of about 14,000 reagents tested. Further read-outs or replicates are left out here. Reagent sequences are not shown. Not given: the time to read-out.

Aim: 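Find knockdowns that reproduce the gene expression pattern seen when KSR1 is lost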 (primary screen)
Cell system: HCT116 human colon cancer cells
Reagents: siRNA pool against human genes, 50 nM siRNA
Measurement: 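mRNA of six signature genes measured together by branched-DNA assay after 50 nM siRNA pool, blank removed, divided by geometric mean of two housekeeping genes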
Scale: BNIP3L mRNA: higher = more BNIP3L transcript after knockdown; NDRG1 mRNA: higher = more NDRG1 transcript after knockdown

no.	gene symbol	BNIP3L mRNA, set 1	NDRG1 mRNA, set 1
1	RDH11	0.117	0.76
2	UTRN	0.13	0.217
3	TTC27	0.138	0.3
4	MTNAP1	0.137	0.257
5	KCTD17	0.0961	0.158
6	GNA12	0.124	0.121
7	CASP9	0.0624	0.266
8	FGG	0.129	0.2
9	CYB561D2	0.16	0.301
10	RGSL1	0.149	0.26
11	TRIM38	0.0884	0.0716
12	ACTG1	0.125	0.241
13	INSM1	0.0894	0.0567
14	HOXA1	0.209	0.465
15	POSTN	0.0637	0.0776
16	DPM1	0.126	0.475
17	NCOA4	0.0859	0.134
18	ERP29	0.123	0.649
19	MYO6	0.0607	0.166
20	ORC4	0.0661	0.257
21	TBC1D23	0.0647	0.0926
22	SMPDL3A	0.136	0.178
23	APLN	0.0724	0.173
24	AIFM1	0.155	0.186
25	ADAP2	0.0519	0.0844
26	ZNF552	0.116	0.146
27	THOC6	0.154	0.853
28	SMURF2	0.105	0.213
29	CHD4	0.116	0.389
30	HIC2	0.151	0.202
31	ZNF74	0.0902	0.112
32	SPATS2	0.0714	0.421
33	CDC42SE1	0.0367	0.15
34	IFNA1	0.154	0.299
35	IFT80	0.0803	0.141
36	GHRH	0.0394	0.0854
37	LSM6	0.106	0.419
38	PRCP	0.0719	0.109
39	EFNA2	0.0951	0.115
40	ASH2L	0.135	0.194
41	CA10	0.323	0.207
42	XIAP	0.0747	0.131
43	UPF3A	0.0863	0.213
44	TFR2	0.126	0.202
45	STS	0.0335	0.111
46	GMCL2	0.0994	0.212
47	BCL2L1	0.084	0.265
48	SAYSD1	0.0853	0.137
49	PCDHB6	0.102	0.197
50	CMKLR1	0.149	0.737
51	ZNF345	0.134	0.238
52	CACNG2	0.201	0.776
53	ATP11B	0.0568	0.161
54	PRDM9	0.0982	0.16
55	KCNAB3	0.0589	0.116
56	TTC4	0.0661	0.231
57	LINC00626	0.246	0.19
58	SULF1	0.119	0.104
59	NDUFS3	0.288	0.571
60	HMGXB3	0.138	0.193
61	SGCG	0.0552	0.328
62	PKIA	0.184	0.181
63	AK2	0.0715	0.217

10 of these entries, set out differently:
gene symbol,"BNIP3L mRNA, set 1","NDRG1 mRNA, set 1"
HIC2,0.151,0.202
ZNF74,0.0902,0.112
SPATS2,0.0714,0.421
CDC42SE1,0.0367,0.15
IFNA1,0.154,0.299
IFT80,0.0803,0.141
GHRH,0.0394,0.0854
LSM6,0.106,0.419
PRCP,0.0719,0.109
EFNA2,0.0951,0.115
